For at least one entry, the source does not settle the construct or the ends of the probe.

Chains of the proteins cited; added tags and fusions are not shown. Chains listed by the source or under a name are the forms on record and can include a tag or linker.
Carcinoembryonic antigen (CEA) (human), one chain, as listed by the source: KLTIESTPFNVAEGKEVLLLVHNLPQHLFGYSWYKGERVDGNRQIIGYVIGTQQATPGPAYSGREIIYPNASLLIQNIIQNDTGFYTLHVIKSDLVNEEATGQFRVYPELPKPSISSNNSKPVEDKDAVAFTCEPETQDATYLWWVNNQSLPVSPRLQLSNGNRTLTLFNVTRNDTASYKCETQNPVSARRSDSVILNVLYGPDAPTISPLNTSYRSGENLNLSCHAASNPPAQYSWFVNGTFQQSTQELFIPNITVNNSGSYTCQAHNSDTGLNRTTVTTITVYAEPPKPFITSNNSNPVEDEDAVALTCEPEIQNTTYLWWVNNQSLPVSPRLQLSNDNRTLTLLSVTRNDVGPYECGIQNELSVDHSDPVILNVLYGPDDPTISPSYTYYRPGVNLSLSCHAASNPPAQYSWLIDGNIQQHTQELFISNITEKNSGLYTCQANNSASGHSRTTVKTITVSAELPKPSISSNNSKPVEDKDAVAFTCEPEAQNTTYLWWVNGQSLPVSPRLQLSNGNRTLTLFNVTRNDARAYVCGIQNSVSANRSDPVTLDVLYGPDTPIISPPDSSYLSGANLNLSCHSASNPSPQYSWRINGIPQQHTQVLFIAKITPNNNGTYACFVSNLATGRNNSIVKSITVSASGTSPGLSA

This is an account of results in PMC8537709.

The subject of the series is Carcinoembryonic antigen (CEA) (human). The series can be described thus: target-induced release of 4-nitrophenol (UV-vis, 318 nm) from aptamer/cDNA-gated magnetic mesoporous silica. The following applies: CEA 1.0 ng/mL, aptamer displaced from immobilized cDNA S2, no Kd; PBS 10 mM, pH 7.4; assay temperature not stated (aptamer loading and gating test at room temperature); commercial protein; protein details: GST tag N-terminus; single-stranded ….

On to “ATACCAGCTTATTCAATT [CEA-specific aptamer]”, for which the binding result is “binds”.
